Experimental data as given in PMC12279200, “Tumor‐Associated Glycan Exploits Adenosine Receptor 2A Signaling to Facilitate Immune Evasion” (Advanced Science, 2025).
No constants are given. Whether binding was seen depends on the method and setting. Some binding calls cover weakened binding; strength is not graded here. Where a sequence is shown, tags or fusion partners need not be part of it.

Target: T1, full‐length recombinant A2AR protein (A2AR‐His, fragment A) (UniProt P29274 1-412)
T1 construct: adenosine receptor 2A (A2AR), full-length (fragment A); the printed end of fragment F (aa 412) fits the human protein; captured on beads by an anti-His antibody; also called full‐length N‐His‐A2AR; A2AR‐full length; source: Escherichia coli, His‐tagged recombinant protein; not shown: His, N-terminal, kept
Test: Luminex bead-based assay; A2AR‐His full length or fragments captured on Luminex beads conjugated with anti‐His antibody; TRAX in solution, detected by antibody and PE-conjugated antibody; with PBS, 30 µM GHCer or 30 µM GH‐biotin; PBS with 1% BSA, 37 °C, 60 min; signals normalised to full‐length A2AR/PBS/TRAX; both purified

binding: binds
B1: recombinant TRAX (His‐tagged) (natural protein, UniProt Q99598 1-290, looked up)
chain: MSNKEGSGGFRKRKHDNFPHNQRREGKDVNSSSPVMLAFKSFQQELDARHDKYERLVKLSRDITVESKRTIFLLHRITSAPDMEDILTESEIKLDGVRQKIFQVAQELSGEDMHQFHRAITTGLQEYVEAVSFQHFIKTRSLISMDEINKQLIFTTEDNGKENKTPSSDAQDKQFGTWRLRVTPVDYLLGVADLTGELMRMCINSVGNGDIDTPFEVSQFLRQVYDGFSFIGNTGPYEVSKKLYTLKQSLAKVENACYALKVRGSEIPKHMLADVFSVKTEMIDQEEGIS
notes: translin-associated factor X (TRAX); source: Escherichia coli, His‐tagged recombinant protein
